Results as given in US20050053990.

Assays:
[1] = test system: AvaII; experiment: enzyme reaction in vitro; conditions: purified native protein, protein details: New England Biolabs restriction endonuclease
[2] = test system: Cac8I; experiment: enzyme reaction in vitro; conditions: purified native protein, protein details: New England Biolabs restriction endonuclease

AAAGCTAAGCGGACCGAGTCGACTGCATCGTCATGAAAAAA (double strand) [B/D DNA duplex]
activity on this sequence ([1]; dsDNA cleaved, NEBuffer 4, 37 C, label: 3'-Fam on both strands): active

AAAGCTAAGCGGACCGAGTCGACTGCATCGTCATGAAAAAA (double strand) [D/F methylated DNA duplex]
activity on this sequence ([1]; bottom strand TTTTTTCATGA(m5C)GATGCAGTCG(n6A)CTCGGTC(m5C)GC..: 5mC and N6-methyl-A, cleavage blocked by methylation of final C, label: 3'-Fam, variant of B/D DNA duplex): not active

AAAGCUAAGCGGACCGAGUCGACUGCAUCGUCAUGAAAAAA / TTTTTTCATGACGATGCAGTCGACTCGGTCCGCTTAGCTTT [A/C RNA/DNA duplex]
activity on this sequence ([1]; RNA strand cleaved, NEBuffer 4, 37 C, 4 h, label: 3'-Fam on RNA strand, DNA:RNA hybrid): active

AAAGCUAAGCGGACCGAGUCGACUGCAUCGUCAUGAAAAAA / TTTTTTCATGACGATGCAGTCGACTCGGTCCGCTTAGCTTT [G/F methylated RNA/DNA duplex]
activity on this sequence ([1]; DNA strand TTTTTTCATGA(m5C)GATGCAGTCG(n6A)CTCGGTC(m5C)GC..: 5mC and N6-methyl-A, cleavage blocked by methylation of final C in DNA strand, label: 5'-Fam RNA, 3'-Fam DNA, DNA:RNA hybrid, variant of A/B RNA/DNA duplex): not active

AAAGCUAAGCGGACCGAGUCGACUGCAUCGUCAUGAAAAAA / UUUUUUCAUGACGAUGCAGUCGACUCGGUCCGCUUAGCUUU [A/E RNA duplex]
activity on this sequence ([1]; dsRNA not cleaved, label: 3'-Fam on both strands): not active

AAAGCUAAGCGGACCGAGUCGACUGCAUCGUCAUGAAAAAA [A ssRNA]
activity on this sequence ([1]; ssRNA not cleaved, label: 3'-Fam): not active

TAAAGGCGCGCCCGCATGCTTTA (double strand) [H/L DNA duplex]
activity on this sequence ([2]; dsDNA cleaved, NEBuffer 3, label: 5'-FAM on both strands): active

TAAAGGCGCGCCCGCATGCTTTA [H ssDNA]
activity on this sequence ([2]; ssDNA not cleaved, label: 5'-FAM, single-stranded DNA): not active

TTTTTTCATGACGATGCAGTCGACTCGGTCCGCTTAGCTTT [B ssDNA]
activity on this sequence ([1]; ssDNA not cleaved, label: 3'-Fam, single-stranded DNA): not active

UAAAGCAUGCGGGCGCGCCUUUA [J ssRNA]
activity on this sequence ([2]; ssRNA not cleaved, label: 5'-FAM): not active

UAAAGGCGCGCCCGCAUGCUUUA / TAAAGCATGCGGGCGCGCCTTTA [I/K RNA/DNA duplex]
activity on this sequence ([2]; RNA strand cleaved, NEBuffer 3, label: 5'-FAM on RNA strand, DNA:RNA hybrid): active

UAAAGGCGCGCCCGCAUGCUUUA / UAAAGCAUGCGGGCGCGCCUUUA [I/J RNA duplex]
activity on this sequence ([2]; dsRNA not cleaved, label: 5'-FAM on both strands): not active

Construct, isoform or probe ends are uncertain for at least one entry. A negative result means that nothing was seen under these conditions.
